Values from PubChem BioAssay AID1053208 (Peter MacCallum Cancer Centre, 2014).
The deposit covers about 17,000 reagents; this is a part drawn at random. In the full data, 788 (4.7%) are marked active. 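Calls rest on z-score classes alone; an extra cut-off of viability at most 70% of control was not applied to them.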 A number with no mark means an inactive call.

Purpose: 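Genes whose silencing cuts survival of bone tumour cells only with doxorubicin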 (primary screen)
System: mouse osteosarcoma cells, early-passage culture from an engineered mouse model of fibroblastic bone tumour
Reagent: siRNA pool against mouse genes, 40 nM
Duration: about 120 h (48 h before drug, then 72 h with drug)
Conditions: doxorubicin 100 nM for 72 h, roughly 30-40% inhibitory dose
Measured: 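Luminescent ATP signal taken as viability with or without 100 nM doxorubicin for 72 h; mean of two wells set against non-targeting siRNA and turned into robust z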
Direction: viability z-score with doxorubicin and doxorubicin viability vs non-targeting: higher = more viable cells under doxorubicin; viability z-score without drug: higher = more viable cells with knock-down alone; z-score of drug to no-drug ratio: higher = less drug sensitisation by knock-down
Hit rule: 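a pool counts as active when its viability z-score with doxorubicin is -2 or below and its z-score without drug lies between -2 and 2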

gene,combined z-score class,viability z-score with doxorubicin,viability z-score without drug,z-score of drug to no-drug ratio,doxorubicin viability vs non-targeting
Hdgfl3,no change with or without drug,-0.67,0.34,-0.79,0.88
Prokr2,no change with or without drug,-0.56,-0.84,0.11,0.89
Gclc,low cell count with and without drug,-2.02,-2.19,-0.56,0.76
Agbl5,no change with or without drug,-0.45,0.17,-0.45,0.9
Olfm1,no change with or without drug,0.67,-1.52,2.02,1
Lins1,no change with or without drug,-0.34,-0.51,0.11,0.91
Casc3,no change with or without drug,-1.46,-0.84,-0.9,0.81
Raet1a,high cell count without drug only,0.45,2.02,-0.67,0.98
Bmerb1,no change with or without drug,-0.9,-1.18,0,0.86
Ppp1r2,no change with or without drug,-0.34,1.52,-1.12,0.91
Slc29a3,no change with or without drug,1.12,0.34,1.01,1.04
Rab43,no change with or without drug,-0.45,0.84,-0.9,0.9
Col5a3,high cell count without drug only,0.11,2.53,-1.35,0.95
Ggt5,no change with or without drug,0.56,1.35,-0.22,0.99
Lrrc24,high cell count without drug only,1.46,2.19,0.11,1.07
Cyfip2,no change with or without drug,0.34,-0.51,0.79,0.97
Usp9y,no change with or without drug,0,0.84,-0.45,0.94
P2rx2,no change with or without drug,-0.9,-0.17,-0.79,0.86
Nat8f5,no change with or without drug,-1.24,-1.18,-0.45,0.83
Dnase1l2,no change with or without drug,1.35,1.85,0.22,1.06
Nkd1,no change with or without drug,-0.22,-0.84,0.45,0.92
Plekha1,no change with or without drug,0.11,1.18,-0.56,0.95
Hnf1b,no change with or without drug,-0.22,1.18,-0.9,0.92
Nrros,no change with or without drug,-0.67,1.52,-1.46,0.88
Gpr82,no change with or without drug,-0.9,0.84,-1.35,0.86
Abcg4,no change with or without drug,-0.11,-0.17,0.11,0.93
Kif4,no change with or without drug,-1.35,-1.01,-0.67,0.82
Aplf,no change with or without drug,-0.34,0.17,-0.34,0.91
Ylpm1,high cell count without drug only,1.12,2.19,-0.22,1.04
Zfp384,no change with or without drug,0.56,1.18,-0.11,0.99
C230066G23Rik,no change with or without drug,0.45,0.51,0.22,0.98
Garre1,no change with or without drug,-1.01,0,-1.01,0.85
Zc3h15,no change with or without drug,0.22,1.18,-0.45,0.96
Nox3,no change with or without drug,-1.35,0,-1.35,0.82
Chst15,no change with or without drug,0.9,-0.51,1.46,1.02
Ier5l,no change with or without drug,0.11,-0.51,0.56,0.95
Nectin3,no change with or without drug,0.9,0.17,0.9,1.02
Akap1,no change with or without drug,-0.9,-1.85,0.45,0.86
Hgh1,no change with or without drug,0.67,0.17,0.67,1
Il17d,no change with or without drug,0,0.17,0,0.94
Stard7,high cell count without drug only,1.12,2.19,-0.22,1.04
2610318N02Rik,no change with or without drug,0.56,-1.52,1.91,0.99
Or4x15,no change with or without drug,-1.12,-1.35,-0.11,0.84
Ddr2,no change with or without drug,-0.56,-1.52,0.56,0.89
Plg,no change with or without drug,0.34,-0.17,0.56,0.97
Zdhhc24,no change with or without drug,-0.22,-1.01,0.56,0.92
Setd3,no change with or without drug,-0.45,-0.51,0,0.9
Pdia4,no change with or without drug,0.34,-1.01,1.24,0.97
Or8g51,no change with or without drug,1.57,1.18,0.9,1.08
Tsnaxip1,no change with or without drug,-0.67,-0.34,-0.34,0.88

Targets listed so far whose target name begins with Z or z (3):
gene,combined z-score class,viability z-score with doxorubicin,viability z-score without drug,z-score of drug to no-drug ratio,doxorubicin viability vs non-targeting
Zfp384,no change with or without drug,0.56,1.18,-0.11,0.99
Zc3h15,no change with or without drug,0.22,1.18,-0.45,0.96
Zdhhc24,no change with or without drug,-0.22,-1.01,0.56,0.92
